Data as given in PubChem BioAssay AID686937 (Drosophila RNAi Screening Center, 2013).
Assay: 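Knock-downs that reduce output of a secreted reporter enzyme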 (primary screen). Cell system: Drosophila S2 cells expressing secreted horseradish peroxidase. Reagent: long dsRNA against Drosophila genes. Duration: about 5.5 days (5 days dsRNA, then 12 h reporter induction). Treatment: reporter expression induced after 5 days of dsRNA, read 12 h later; inducer not stated. Measured: 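After 5 days of dsRNA and 12 h of reporter induction, medium peroxidase read by chemiluminescence and scored as per-plate z-score; higher values mean more reporter released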. Reading the numbers: z-score: higher = more reporter secreted into medium.
In all, the deposit lists about 23,000 reagents; below is an unselected part of those with a known target gene and a result. 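Reduced-secretion tags in replicate 1 do not always agree with the z-scores; no criterion for assigning the tags was given.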 The numbers tell different reagents against one gene apart. Names joined by + are all predicted targets of the reagent. Further read-outs or replicates are left out here. No sequences are given here. Not stated in the record: the amount of reagent.

{"target gene":"Coq3 (Coenzyme Q3)","reagent":1,"z-score, replicate 1":0.08}
{"target gene":"CG31454","reagent":1,"z-score, replicate 1":0.14}
{"target gene":"CG31454","reagent":2,"z-score, replicate 1":-0.7}
{"target gene":"hng3 (hinge3)","reagent":1,"z-score, replicate 1":0.48}
{"target gene":"Best3 (Bestrophin 3)","reagent":1,"z-score, replicate 1":0.58}
{"target gene":"Pal1 + Pdrg1","reagent":1,"z-score, replicate 1":0.17}
{"target gene":"aub (aubergine)","reagent":1,"z-score, replicate 1":0.42}
{"target gene":"CG4770","reagent":1,"z-score, replicate 1":0.41}
{"target gene":"CG10481","reagent":1,"z-score, replicate 1":0.22}
{"target gene":"GstD11 (Glutathione S transferase D11)","reagent":1,"z-score, replicate 1":0.15}
{"target gene":"Rab9Db + Rab9Fa","reagent":1,"z-score, replicate 1":0.35}
{"target gene":"Rfx","reagent":1,"z-score, replicate 1":0.28}
{"target gene":"TwdlX (TweedleX)","reagent":1,"z-score, replicate 1":0.02}
{"target gene":"Cyt-c1 (Cytochrome c1)","reagent":1,"z-score, replicate 1":0.13}
{"target gene":"term (terminus)","reagent":1,"z-score, replicate 1":-0.05,"phenotype, replicate 1":"reduced secretion"}
{"target gene":"Srg3 (Sting-regulated gene 3)","reagent":1,"z-score, replicate 1":0.51}
{"target gene":"Srg3 (Sting-regulated gene 3)","reagent":2,"z-score, replicate 1":0.6}
{"target gene":"a5 (antennal protein 5)","reagent":1,"z-score, replicate 1":0.21}
{"target gene":"ETHR","reagent":1,"z-score, replicate 1":0.45}
{"target gene":"Rbp (RIM-binding protein)","reagent":1,"z-score, replicate 1":-2.86,"phenotype, replicate 1":"reduced secretion"}
{"target gene":"Rbp (RIM-binding protein)","reagent":2,"z-score, replicate 1":-0.23}
{"target gene":"ru (roughoid)","reagent":1,"z-score, replicate 1":0.18}
{"target gene":"CG13473","reagent":1,"z-score, replicate 1":0.41}
{"target gene":"kmr (kramer)","reagent":1,"z-score, replicate 1":0.39}
{"target gene":"kmr (kramer)","reagent":2,"z-score, replicate 1":0.27}
{"target gene":"kmr (kramer)","reagent":3,"z-score, replicate 1":0.51}
{"target gene":"kmr (kramer)","reagent":4,"z-score, replicate 1":-0.17}
{"target gene":"CG18635","reagent":1,"z-score, replicate 1":0.75}
{"target gene":"bcd + CR14578","reagent":1,"z-score, replicate 1":0.42}
{"target gene":"CG7236","reagent":1,"z-score, replicate 1":-0.12}
{"target gene":"CG31013","reagent":1,"z-score, replicate 1":0.16}
{"target gene":"qkr54B (quaking related 54B)","reagent":1,"z-score, replicate 1":0.33}
{"target gene":"shg (shotgun)","reagent":1,"z-score, replicate 1":0.27}
{"target gene":"CG10764","reagent":1,"z-score, replicate 1":0.22}
{"target gene":"TfIIEalpha (Transcription factor IIEalpha)","reagent":1,"z-score, replicate 1":-2.7,"phenotype, replicate 1":"reduced secretion"}
{"target gene":"amos (absent MD neurons and olfactory sensilla)","reagent":1,"z-score, replicate 1":0.22}
{"target gene":"CG9121","reagent":1,"z-score, replicate 1":0.22}
{"target gene":"Gtpx","reagent":1,"z-score, replicate 1":0.53}
{"target gene":"Gtpx","reagent":2,"z-score, replicate 1":-1.01}
{"target gene":"Unr (Upstream of N-ras)","reagent":1,"z-score, replicate 1":0.01}
{"target gene":"Unr (Upstream of N-ras)","reagent":2,"z-score, replicate 1":-0.32}

5 entries from above, reformatted.
target gene	reagent	z-score, replicate 1	phenotype, replicate 1
ru (roughoid)	1	0.18	
CG13473	1	0.41	
kmr (kramer)	1	0.39	
kmr (kramer)	2	0.27	
kmr (kramer)	3	0.51	
